Reference: patent publication US10118954B2, “Apelin analogues” (University of Ulster, priority 2014, dated 2018)
For part of these data: At least one structure is not confirmed: it was looked up by name or label, or the drawing left a doubt. Some of these results come from one statement about several compounds together.

What was measured:
[1] = test system: high fat fed NIH Swiss mice; test: 28 day long-term study of fatty acid apelin analogues, once daily i.p. administration; type: in vivo
Description: NIH Swiss mice (Harlan UK Ltd., Blackthorne, UK) were derived from a nucleus colony obtained from the National Institute of Health, Bethesda, Md., USA. One group of mice were maintained on a standard rodent diet (10% fat, 30% protein, 60% carbohydrate; percent of total energy 12.99 kJ/g, Trouw Nutrition, Cheshire, UK) and used as a model of normal glycaemia. Other NIH Swiss mice were maintained on a high fat diet (45% fat, 20% protein, 35% carbohydrate; percent of total energy 26.15 kJ/g; Dietex, Essex, UK) from 8 weeks of age for 150 days to produce a model of diet induced obesity-diabetes. […] All mice were housed in an air-conditioned room maintained at 22±2° C. with a 12 h light: 12 h dark cycle (08:00-20:00 h), were singly caged, and selected for experimental groups according to body weight and non-fasted blood glucose. Drinking water and diet were freely available. All animal studies were performed in accordance with the UK Animals (Scientific Procedures) Act 1986.
For another 28 day long-term study of selected fatty acid apelin analogues administered once daily, normal control NIH Swiss (n=8) and high-fat fed NIH Swiss (n=8) were grouped and received once daily i.p. injections of saline vehicle (0.9% NaCl (w/v)) at 17:00 h over a 4 day run-in period. Following the run-in period, normal control (n=8) and high-fat fed mice (n=8) received once daily (17:00 h) i.p. administration of saline vehicle (0.9% NaCl (w/v)) for 28 days. Additional groups of high-fat fed mice (n=8) received once daily i.p. injections of (Lys^8gluPal)apelin-13-amide, pGlu(Lys^8gluPal)apelin-13-amide or liraglutide (each at 25 nmol/kg bw) over a 28 day treatment period.
Food intake, body weight, blood glucose and plasma insulin were monitored at intervals of 2-3 days throughout the run-in and 28 day treatment period. Blood samples for glucose and plasma insulin measurement were collected at intervals throughout the study from the cut tail vein of conscious mice. Following the 28 day treatment period, oral, i.p. and meal test glucose tolerance ([…].), and insulin sensitivity (25 U/kg bw) tests were performed. Glucose was measured using an Ascensia Contour meter and blood was collected and processed for plasma insulin analysis by radioimmunoassay. Body weight and fat mass was also assessed using the PIXImus DEXA scanner whilst energy expenditure, intake, food intake and feeding bouts were assessed using the CLAMS metabolic chamber. HbA1c was analysed post 28 days using Bayer A1C Now^+ Multi Test meter. Lipid profile test was obtained by using the iLab analyser. Cholesterol, triglyceride and HDL-cholesterol levels were measured, in plasma (3 μl), using the iLab analyser. LDL-cholesterol levels were obtained using the Friedewald equation=total cholesterol−HDL−(triglycerides/3).

[2] = test system: NIH Swiss mice fed a high-fat diet for 150 days; test: Acute and delayed i.p. glucose tolerance test, blood glucose and plasma insulin; type: in vivo; conditions: glucose lowering
Description: Plasma glucose and plasma insulin concentrations were measured prior to and after i.p. administration of glucose alone (18 mmol/kg body weight), or in combination with apelin analogues (25 nmol/kg body weight) in 18 h fasted mice fed a high-fat diet for 150 days. Values represent mean±SEM for eight mice (n=8). *P<0.05, **P<0.01 and ***P<0.001 compared to glucose alone. FIG. 6 illustrates effect of i.p. administration of glucose alone (18 mmol/kg body weight), ([…])apelin-13 and ([…])apelin-13 alone or in combination (each 25 nmol/kg body weight) on (A) blood glucose and (B) plasma insulin in 18 h fasted mice fed a high-fat diet for 150 days. Values represent mean±SEM for eight mice (n=8). *p<0.05 and **p<0.01 compared to glucose alone, ^+P<0.05 compared to ([…])apelin-13, ^∇P<0.05 and ^∇∇P<0.01 compared to ([…])apelin-13. FIG. 10 illustrates tests conducted 2 h after administration of apelin related analogues (25 nmol/kg body wt) in 18 h fasted mice fed a high-fat diet for 150 days. (A) Blood glucose and (B) plasma insulin was measured before and after i.p. administration of glucose (18 mmol/kg body wt) alone or in combination with apelin analogues. Values represent mean±SEM for eight mice (n=8). *P<0.05 and **P<0.01 compared to glucose alone. FIG. 11 illustrates tests conducted 8 h after administration of apelin related analogues (25 nmol/kg body wt) in 18 h fasted mice fed a high-fat diet for 150 days. (A) Blood glucose and (B) plasma insulin was measured before and after i.p. administration of glucose (18 mmol/kg body wt) alone or in combination with apelin analogues. Values represent mean±SEM for eight mice (n=8). *P<0.05 and **P<0.01 compared to glucose alone. FIG. 12 illustrates acute effects of fatty acid modified apelin analogues on glucose-lowering and insulin release in high fat fed Swiss NIH mice with dietary-induced diabetes. (A) Blood glucose and (B) plasma insulin concentrations were measured prior to and after i.p. administration of glucose alone (18 mmol/kg body weight), or in combination with apelin analogues (25 nmol/kg body weight) in 18 h fasted mice fed a high-fat diet for 150 days. Values represent mean±SEM for eight mice (n=8). *P<0.05, compared to glucose alone. FIG. 13 illustrates tests conducted 16 h after administration of fatty acid apelin analogues (25 nmol/kg body wt) in mice fed a high-fat diet for 150 days. (A) Blood glucose and (B) plasma insulin was measured before and after i.p. administration of glucose (18 mmol/kg body wt) alone or in combination with apelin analogues. Values represent mean±SEM for eight mice (n=8). *P<0.05, **P<0.01 and ***P<0.001 compared to glucose alone. NIH Swiss mice (Harlan UK Ltd., Blackthorne, UK) were derived from a nucleus colony obtained from the National Institute of Health, Bethesda, Md., USA. […]

[3] = once daily 25 nmol/kg bw, 28 days

CCCCCCCCCCCCCCCC(=O)N[C@@H](CCC(=O)NCCCC[C@H](NC(=O)[C@H](C)NC(=O)[C@H](C)NC(=O)[C@H](CCC(N)=O)NC(=O)CNC(=O)[C@H](CCC(=O)O)NC(=O)[C@H](CC(C)C)NC(=O)[C@H](Cc1ccc(O)cc1)NC(=O)[C@H](CO)NC(=O)[C@H](CO)NC(=O)[C@@H](NC(=O)[C@H](CC(=O)O)NC(=O)[C@H](CO)NC(=O)[C@@H](NC(=O)[C@H](Cc1ccccc1)NC(=O)[C@@H](NC(=O)CNC(=O)[C@H](CCC(=O)O)NC(=O)[C@H](C)NC(=O)[C@@H](N)Cc1cnc[nH]1)[C@@H](C)O)[C@@H](C)O)C(C)C)C(=O)N[C@@H](CCC(=O)O)C(=O)N[C@@H](Cc1ccccc1)C(=O)N[C@H](C(=O)N[C@@H](C)C(=O)N[C@@H](Cc1c[nH]c2ccccc12)C(=O)N[C@@H](CC(C)C)C(=O)N[C@H](C(=O)N[C@@H](CCCNC(=N)N)C(=O)NCC(=O)N[C@@H](CCCNC(=N)N)C(=O)NCC(=O)O)C(C)C)[C@@H](C)CC)C(=O)O [liraglutide, reference compound]
Energy expended over a 24 h period ([1]; after 28 days, CLAMS chamber): failed to reach significance | Percentage fat mass ([1]; after 28 days, DEXA analysis): significantly more percentage fat mass compared to the lean controls | Glucose tolerance and plasma insulin excursion in response to an i.p and oral glucose challenge ([1]; after the 28 day treatment period): significantly improved | Bodyweight reduction [1, 3]: ~3% | Day of study at which bodyweight was significantly decreased [1, 3]: 21 days | Day of study at which circulating blood glucose began to be significantly reduced and plasma insulin increased [1, 3]: 10 days | Day of study at which food intake was significantly reduced [1, 3]: 8 days | Plasma triglyceride levels ([1]; once daily, high-fat fed mice): significantly lower

CSCC[C@H](NC(=O)[C@@H]1CCCN1C(=O)CNC(=O)[C@H](CCCCN)NC(=O)[C@H](Cc1c[nH]cn1)NC(=O)[C@H](CO)NC(=O)[C@H](CC(C)C)NC(=O)[C@H](CCCNC(=N)N)NC(=O)[C@@H]1CCCN1C(=O)[C@H](CCCNC(=N)N)NC(=O)[C@@H](N)CCC(N)=O)C(=O)N1CCC[C@H]1C(=O)N[C@@H](Cc1ccccc1)C(N)=O [Apelin-13-amide]
Time after an i.p. injection for which efficacy is retained (at least) [2]: at least 4 h

CCCCCCCCCCCCCCCC(=O)N[C@@H](CCC(=O)NCCCC[C@H](NC(=O)[C@H](Cc1c[nH]cn1)NC(=O)[C@H](CO)NC(=O)[C@H](CC(C)C)NC(=O)[C@H](CCCNC(=N)N)NC(=O)[C@@H]1CCCN1C(=O)[C@H](CCCNC(=N)N)NC(=O)[C@@H](N)CCC(N)=O)C(=O)NCC(=O)N1CCC[C@H]1C(=O)N[C@@H](CCSC)C(=O)N1CCC[C@H]1C(=O)N[C@@H](Cc1ccccc1)C(N)=O)C(=O)O [(Lys^8GluPAL)apelin-13-amide]
Time after injection up to which efficacy is retained [2]: up to 16 h

CCCCCCCCCCCCCCCC(=O)N[C@@H](CCC(=O)NCCCC[C@H](NC(=O)[C@H](Cc1c[nH]cn1)NC(=O)[C@H](CO)NC(=O)[C@H](CC(C)C)NC(=O)[C@H](CCCNC(=N)N)NC(=O)[C@@H]1CCCN1C(=O)[C@H](CCCNC(=N)N)NC(=O)[C@@H]1CCC(=O)N1)C(=O)NCC(=O)N1CCC[C@H]1C(=O)N[C@@H](CCSC)C(=O)N1CCC[C@H]1C(=O)N[C@@H](Cc1ccccc1)C(N)=O)C(=O)O [pGlu(Lys^8GluPAL)apelin-13-amide]
Time after injection up to which efficacy is retained [2]: up to 16 h

CSCC[C@H](NC(=O)[C@@H]1CCCN1C(=O)CNC(=O)[C@H](CCCCN)NC(=O)[C@H](Cc1c[nH]cn1)NC(=O)[C@H](CO)NC(=O)[C@H](CC(C)C)NC(=O)[C@H](CCCNC(=N)N)NC(=O)[C@@H]1CCCN1C(=O)[C@H](CCCNC(=N)N)NC(=O)[C@@H]1CCC(=O)N1)C(=O)N1CCC[C@H]1C(=O)N[C@@H](Cc1ccccc1)C(N)=O [(pGlu)apelin-13-amide]
Time after an i.p. injection for which efficacy is retained (at least) [2]: at least 4 h
